Some of the results follow.

Protein sequences, listed by entry. Tags and fused reporters are not part of them. Lines headed by an entry give the natural chain unless they say otherwise; changes in a name come on top.
UniProt P61201: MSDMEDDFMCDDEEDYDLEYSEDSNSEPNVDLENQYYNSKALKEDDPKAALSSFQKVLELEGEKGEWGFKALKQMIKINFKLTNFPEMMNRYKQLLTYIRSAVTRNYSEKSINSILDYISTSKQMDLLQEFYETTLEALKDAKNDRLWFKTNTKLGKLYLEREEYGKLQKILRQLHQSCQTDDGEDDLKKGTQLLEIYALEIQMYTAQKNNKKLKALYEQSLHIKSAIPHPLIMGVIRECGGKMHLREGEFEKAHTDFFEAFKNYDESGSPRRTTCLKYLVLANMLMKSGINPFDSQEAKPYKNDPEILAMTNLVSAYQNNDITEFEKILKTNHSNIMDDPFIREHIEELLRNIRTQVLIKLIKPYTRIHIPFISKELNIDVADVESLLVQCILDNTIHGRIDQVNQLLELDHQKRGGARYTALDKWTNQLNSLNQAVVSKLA
UniProt Q9UIV1, whole entry, looked up: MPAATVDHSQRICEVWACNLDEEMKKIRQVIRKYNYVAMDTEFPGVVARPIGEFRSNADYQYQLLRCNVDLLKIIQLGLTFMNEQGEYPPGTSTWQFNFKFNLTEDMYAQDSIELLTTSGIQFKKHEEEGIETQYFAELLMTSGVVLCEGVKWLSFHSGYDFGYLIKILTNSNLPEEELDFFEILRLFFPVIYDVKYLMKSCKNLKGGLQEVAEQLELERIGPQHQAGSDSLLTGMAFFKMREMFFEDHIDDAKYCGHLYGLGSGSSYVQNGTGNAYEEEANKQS
UniProt O75208: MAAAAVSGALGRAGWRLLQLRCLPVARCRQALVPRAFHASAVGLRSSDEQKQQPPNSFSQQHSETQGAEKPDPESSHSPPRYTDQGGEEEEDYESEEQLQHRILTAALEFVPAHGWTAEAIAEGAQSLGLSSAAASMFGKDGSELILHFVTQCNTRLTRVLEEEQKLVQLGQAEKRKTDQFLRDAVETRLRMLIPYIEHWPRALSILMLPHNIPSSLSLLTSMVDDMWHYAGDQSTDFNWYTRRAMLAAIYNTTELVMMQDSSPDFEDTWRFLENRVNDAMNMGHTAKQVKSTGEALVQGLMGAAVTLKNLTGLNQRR
UniProt Q14746: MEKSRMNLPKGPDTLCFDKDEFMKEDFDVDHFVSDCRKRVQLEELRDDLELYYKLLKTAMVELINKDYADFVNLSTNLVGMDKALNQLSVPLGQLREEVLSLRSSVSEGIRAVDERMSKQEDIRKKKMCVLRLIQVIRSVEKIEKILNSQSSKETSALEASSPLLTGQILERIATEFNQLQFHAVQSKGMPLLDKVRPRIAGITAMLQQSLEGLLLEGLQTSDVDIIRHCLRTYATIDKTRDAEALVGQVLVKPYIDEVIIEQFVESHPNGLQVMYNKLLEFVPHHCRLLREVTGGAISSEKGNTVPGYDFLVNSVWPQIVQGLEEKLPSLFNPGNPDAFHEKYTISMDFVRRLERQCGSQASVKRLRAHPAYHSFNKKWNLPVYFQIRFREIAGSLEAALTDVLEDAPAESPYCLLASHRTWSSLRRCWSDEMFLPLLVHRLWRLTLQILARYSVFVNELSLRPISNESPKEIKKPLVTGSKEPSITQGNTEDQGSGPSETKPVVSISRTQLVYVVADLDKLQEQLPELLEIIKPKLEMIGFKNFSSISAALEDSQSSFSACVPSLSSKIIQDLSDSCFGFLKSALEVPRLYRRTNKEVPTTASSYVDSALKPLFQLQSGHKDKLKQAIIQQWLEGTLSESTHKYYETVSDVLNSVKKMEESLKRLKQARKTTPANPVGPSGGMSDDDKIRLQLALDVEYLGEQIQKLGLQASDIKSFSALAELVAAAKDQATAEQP
UniProt Q8WTW3: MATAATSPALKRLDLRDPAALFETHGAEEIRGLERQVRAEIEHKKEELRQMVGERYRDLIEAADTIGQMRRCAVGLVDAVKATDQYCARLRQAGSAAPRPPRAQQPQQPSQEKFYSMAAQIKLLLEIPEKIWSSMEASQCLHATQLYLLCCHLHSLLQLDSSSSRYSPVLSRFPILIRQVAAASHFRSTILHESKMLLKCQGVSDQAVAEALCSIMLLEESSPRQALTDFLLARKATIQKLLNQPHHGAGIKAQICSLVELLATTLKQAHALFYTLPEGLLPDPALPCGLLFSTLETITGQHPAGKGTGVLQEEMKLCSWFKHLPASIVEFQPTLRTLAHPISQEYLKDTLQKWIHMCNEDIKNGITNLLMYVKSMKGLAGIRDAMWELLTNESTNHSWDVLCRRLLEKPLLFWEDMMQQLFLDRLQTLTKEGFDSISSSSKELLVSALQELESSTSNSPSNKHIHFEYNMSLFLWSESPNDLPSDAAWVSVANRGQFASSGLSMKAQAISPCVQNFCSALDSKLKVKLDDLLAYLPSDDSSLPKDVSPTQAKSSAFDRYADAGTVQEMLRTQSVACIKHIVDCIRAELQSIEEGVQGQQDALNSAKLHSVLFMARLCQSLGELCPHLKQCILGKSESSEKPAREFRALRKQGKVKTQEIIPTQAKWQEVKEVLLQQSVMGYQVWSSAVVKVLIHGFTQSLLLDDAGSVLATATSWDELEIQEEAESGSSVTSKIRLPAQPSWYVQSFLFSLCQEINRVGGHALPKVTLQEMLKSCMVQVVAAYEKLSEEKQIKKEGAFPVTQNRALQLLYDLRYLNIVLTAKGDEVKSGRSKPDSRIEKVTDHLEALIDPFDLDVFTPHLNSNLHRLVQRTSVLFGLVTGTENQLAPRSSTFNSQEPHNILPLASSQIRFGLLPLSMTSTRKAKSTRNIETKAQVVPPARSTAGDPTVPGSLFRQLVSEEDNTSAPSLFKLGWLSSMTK
UniProt Q8IYK4: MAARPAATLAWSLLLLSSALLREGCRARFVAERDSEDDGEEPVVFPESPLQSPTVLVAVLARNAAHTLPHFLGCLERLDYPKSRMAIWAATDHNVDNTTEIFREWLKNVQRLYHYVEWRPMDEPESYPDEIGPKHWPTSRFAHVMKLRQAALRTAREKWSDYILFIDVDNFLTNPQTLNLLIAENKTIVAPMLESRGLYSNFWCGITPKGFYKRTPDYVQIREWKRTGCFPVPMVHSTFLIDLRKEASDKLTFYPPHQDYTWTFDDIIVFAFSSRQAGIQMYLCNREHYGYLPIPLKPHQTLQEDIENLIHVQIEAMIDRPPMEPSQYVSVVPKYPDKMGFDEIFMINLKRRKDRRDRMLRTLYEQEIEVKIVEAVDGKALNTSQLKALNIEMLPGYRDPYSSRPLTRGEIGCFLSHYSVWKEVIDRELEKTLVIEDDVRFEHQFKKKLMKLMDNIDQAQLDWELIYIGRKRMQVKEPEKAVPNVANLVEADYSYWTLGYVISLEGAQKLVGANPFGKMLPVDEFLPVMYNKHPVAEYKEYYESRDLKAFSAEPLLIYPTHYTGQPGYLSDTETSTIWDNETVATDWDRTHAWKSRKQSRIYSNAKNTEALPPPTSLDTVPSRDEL
UniProt Q92905, whole entry, looked up: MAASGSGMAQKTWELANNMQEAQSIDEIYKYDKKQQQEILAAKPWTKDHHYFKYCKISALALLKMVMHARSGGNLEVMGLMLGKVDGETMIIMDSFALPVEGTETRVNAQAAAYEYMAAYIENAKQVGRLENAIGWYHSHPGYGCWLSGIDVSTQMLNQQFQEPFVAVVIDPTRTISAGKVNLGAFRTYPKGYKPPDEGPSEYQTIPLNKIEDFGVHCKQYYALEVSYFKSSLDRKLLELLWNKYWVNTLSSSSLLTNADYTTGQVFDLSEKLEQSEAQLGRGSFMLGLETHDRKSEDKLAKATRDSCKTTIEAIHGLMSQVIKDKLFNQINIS
UniProt Q9H0A8, whole entry, looked up: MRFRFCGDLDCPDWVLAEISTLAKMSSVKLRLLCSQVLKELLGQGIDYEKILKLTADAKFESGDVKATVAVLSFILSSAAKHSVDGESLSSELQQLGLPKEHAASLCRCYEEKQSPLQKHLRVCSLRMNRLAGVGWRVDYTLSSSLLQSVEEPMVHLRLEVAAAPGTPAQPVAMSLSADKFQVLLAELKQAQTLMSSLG
UniProt Q9P000, whole entry, looked up: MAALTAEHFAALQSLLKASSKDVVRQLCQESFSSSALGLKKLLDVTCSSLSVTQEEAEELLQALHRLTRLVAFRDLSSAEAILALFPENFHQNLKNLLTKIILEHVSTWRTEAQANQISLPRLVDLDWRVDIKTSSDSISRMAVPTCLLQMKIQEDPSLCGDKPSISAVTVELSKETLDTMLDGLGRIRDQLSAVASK
UniProt A5YKK6, whole entry, looked up: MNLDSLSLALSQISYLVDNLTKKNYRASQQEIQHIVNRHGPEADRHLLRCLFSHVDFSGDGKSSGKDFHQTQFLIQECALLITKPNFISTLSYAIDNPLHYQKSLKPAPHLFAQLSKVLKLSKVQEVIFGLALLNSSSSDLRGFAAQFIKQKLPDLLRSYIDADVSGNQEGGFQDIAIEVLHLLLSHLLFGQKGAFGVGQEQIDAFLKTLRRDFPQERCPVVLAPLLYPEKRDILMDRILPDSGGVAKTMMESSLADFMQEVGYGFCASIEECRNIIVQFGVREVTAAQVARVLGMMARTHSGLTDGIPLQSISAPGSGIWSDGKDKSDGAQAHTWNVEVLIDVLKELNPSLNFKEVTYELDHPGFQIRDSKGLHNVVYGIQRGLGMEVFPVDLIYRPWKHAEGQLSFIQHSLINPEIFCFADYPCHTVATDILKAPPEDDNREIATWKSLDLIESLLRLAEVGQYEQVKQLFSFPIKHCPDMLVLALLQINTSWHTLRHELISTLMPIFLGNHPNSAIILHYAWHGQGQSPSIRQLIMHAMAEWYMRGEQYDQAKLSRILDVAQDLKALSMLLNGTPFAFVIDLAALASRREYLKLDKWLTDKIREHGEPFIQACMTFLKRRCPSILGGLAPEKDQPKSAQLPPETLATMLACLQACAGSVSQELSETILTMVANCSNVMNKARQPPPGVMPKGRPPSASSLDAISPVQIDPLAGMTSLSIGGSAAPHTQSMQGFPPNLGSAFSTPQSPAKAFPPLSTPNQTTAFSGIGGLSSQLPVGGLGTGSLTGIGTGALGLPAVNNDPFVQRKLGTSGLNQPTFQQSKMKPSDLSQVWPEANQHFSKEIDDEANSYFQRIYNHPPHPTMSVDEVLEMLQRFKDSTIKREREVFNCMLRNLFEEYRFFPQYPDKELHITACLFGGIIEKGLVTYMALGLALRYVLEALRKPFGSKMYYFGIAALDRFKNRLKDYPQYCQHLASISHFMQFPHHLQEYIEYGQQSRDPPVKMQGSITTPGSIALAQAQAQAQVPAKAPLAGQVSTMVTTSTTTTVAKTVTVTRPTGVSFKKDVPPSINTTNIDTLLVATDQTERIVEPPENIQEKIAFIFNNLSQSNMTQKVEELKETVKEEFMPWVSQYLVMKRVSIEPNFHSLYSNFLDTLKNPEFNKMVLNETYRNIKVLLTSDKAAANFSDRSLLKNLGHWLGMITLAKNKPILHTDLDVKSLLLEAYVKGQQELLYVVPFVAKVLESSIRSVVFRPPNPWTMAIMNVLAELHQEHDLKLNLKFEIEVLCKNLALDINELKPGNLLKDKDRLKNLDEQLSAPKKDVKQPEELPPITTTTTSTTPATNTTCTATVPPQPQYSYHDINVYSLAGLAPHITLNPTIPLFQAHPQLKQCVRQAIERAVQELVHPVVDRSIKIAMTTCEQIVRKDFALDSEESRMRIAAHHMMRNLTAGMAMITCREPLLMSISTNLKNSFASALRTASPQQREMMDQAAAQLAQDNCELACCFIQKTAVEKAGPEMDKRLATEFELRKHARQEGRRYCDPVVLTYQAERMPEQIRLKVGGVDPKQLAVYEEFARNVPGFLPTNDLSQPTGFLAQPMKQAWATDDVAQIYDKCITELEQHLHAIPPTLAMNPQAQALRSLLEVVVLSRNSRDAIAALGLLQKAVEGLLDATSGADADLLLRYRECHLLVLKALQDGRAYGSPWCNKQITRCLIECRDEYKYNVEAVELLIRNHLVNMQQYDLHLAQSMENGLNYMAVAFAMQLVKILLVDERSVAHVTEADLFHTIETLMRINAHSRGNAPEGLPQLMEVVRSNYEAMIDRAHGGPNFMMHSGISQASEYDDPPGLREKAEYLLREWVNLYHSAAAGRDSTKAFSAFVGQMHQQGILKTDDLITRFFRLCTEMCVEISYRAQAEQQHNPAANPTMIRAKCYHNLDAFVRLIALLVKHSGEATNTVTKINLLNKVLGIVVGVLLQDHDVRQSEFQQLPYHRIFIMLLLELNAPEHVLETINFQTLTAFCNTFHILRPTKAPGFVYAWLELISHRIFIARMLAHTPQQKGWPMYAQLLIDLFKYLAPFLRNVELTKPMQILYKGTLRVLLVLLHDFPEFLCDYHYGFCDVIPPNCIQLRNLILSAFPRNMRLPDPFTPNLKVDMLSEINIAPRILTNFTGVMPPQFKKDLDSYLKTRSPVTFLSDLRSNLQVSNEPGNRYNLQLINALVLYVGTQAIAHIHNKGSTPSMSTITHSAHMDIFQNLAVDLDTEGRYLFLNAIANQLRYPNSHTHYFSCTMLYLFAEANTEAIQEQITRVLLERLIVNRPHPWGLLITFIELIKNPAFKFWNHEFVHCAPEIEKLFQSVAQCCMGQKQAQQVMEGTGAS
UniProt Q49B96: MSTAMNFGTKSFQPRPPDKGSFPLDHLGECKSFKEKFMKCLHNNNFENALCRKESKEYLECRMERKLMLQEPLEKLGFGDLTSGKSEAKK

Compound in the first test: CC1=C2C(=CC=C1)N=C(N(C2=O)C3=CC=CC=C3C)CN4C=NC5=C(N=CN=C54)N
In words: log2 fold change, soluble protein after heating vs DMSO (PISA); higher = thermal stabilisation; K562 lysate, 10 uM; active = over 0.2 and 3.5 SD of the protein, either way, in both replicates (recomputed). Put shortly: (§1)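 Dounce homogenisation of K562 pellets in PBS pH 7.4 with 1 mM MgCl2 produced a crude extract, used at 1 mg/mL protein. Exposure to 10 μM compound lasted 30 min, and aliquots were then heated for 3 min across 48°C-58°C, pooled and brought to 0.5% NP-40 at 4°C. The supernatant after 21,000xg for 90 min was quantified by TMTpro 16plex LC-MS/MS with channel sums equalised. Duplicate values are given as log-two fold change in thermal stability relative to solvent controls.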
For COMTD1 (UniProt Q86VU5), the log2 fold change is inactive: 0.045.
For COPS3 (UniProt Q9UNS2), the log2 fold change is inactive: 0.016.
The same measure, in the same setting: as for COPS4 (UniProt Q9BT78), the figure is inactive: -0.022; as for COLEC11 isoform 10 (UniProt Q9BWP8), inactive: -0.048.
Same read-out and setting: as for COPS2 isoform 2 (UniProt P61201), the figure is inactive: -0.022; as for CNOT7 (UniProt Q9UIV1), inactive: 0.01; as for COA3 (UniProt Q9Y2R0), inactive: -0.004.
As to COMMD7 (UniProt Q86VX2), the log2 fold change is inactive: -0.004.
Take CNOT6 (UniProt Q9ULM6): the log2 fold change is inactive: 0.041.
Regarding COQ9 (UniProt O75208), the log2 fold change was inactive: 0.026.
As for CNOT3 (UniProt O75175), the log2 fold change is inactive: 0.007.
Turning to CNP (UniProt P09543), the log2 fold change was inactive: 0.036.
For the target COG2 (UniProt Q14746), the log2 fold change is inactive: 0.054.
With COG1 (UniProt Q8WTW3), the log2 fold change is inactive: 0.074.
Take COLGALT2 (UniProt Q8IYK4): the log2 fold change is inactive: 0.039.
In the case of COPS5 (UniProt Q92905), the log2 fold change was inactive: 0.004.
As to COMMD4 (UniProt Q9H0A8), the log2 fold change is inactive: -0.025.
Take CPNE8 (UniProt Q86YQ8): the log2 fold change is inactive: 0.03.
Turning to CNOT2 (UniProt Q9NZN8), the log2 fold change was inactive: -0.019.
With CPED1 (UniProt A4D0V7), the log2 fold change is inactive: 0.053.
With CPNE7 (UniProt Q9UBL6), the log2 fold change was inactive: 0.088.
For COX5B (UniProt P10606), the log2 fold change was inactive: -0.037.
Take COMMD9 (UniProt Q9P000): the log2 fold change was inactive: 0.008.
Regarding COPS7A (UniProt Q9UBW8), the log2 fold change is inactive: -0.011.
Same read-out and setting: as for CRABP2 (UniProt P29373), the figure is inactive: 0.055; as for CNIH4 (UniProt Q9P003), inactive: -0.017; as for CNOT9 (UniProt Q92600), inactive: 0.006.
Still for that read-out and setting: as for COL15A1 (UniProt P39059), the figure is inactive: 0.118; as for CNOT1 (UniProt A5YKK6), inactive: 0.034; as for COX19 (UniProt Q49B96), inactive: -0.107.
Still for that read-out and setting: as for CORO2A (UniProt Q92828), the figure is inactive: -0.013.
With CORO1A (UniProt P31146), the log2 fold change was inactive: 0.004.
As for CPEB4 (UniProt Q17RY0), the log2 fold change was inactive: 0.091.
In the case of CNOT8 (UniProt Q9UFF9), the log2 fold change is inactive: 0.022.
Regarding CNRIP1 (UniProt Q96F85), the log2 fold change was inactive: 0.003.

Compound in a further test: Cc1sc2c(c1C)C(c1ccc(Cl)cc1)=N[C@@H](CC(=O)OC(C)(C)C)c1nnc(C)n1-2
The description is as above. In short, it runs like this: as §1
In the case of COMTD1 (UniProt Q86VU5), the log2 fold change is inactive: 0.022.
Take COPS3 (UniProt Q9UNS2): the log2 fold change is inactive: -0.027.
As for COPS4 (UniProt Q9BT78), the log2 fold change is inactive: 0.005.
With COLEC11 isoform 10 (UniProt Q9BWP8), the log2 fold change was inactive: -0.019.
Same read-out and setting: as for COPS2 isoform 2 (UniProt P61201), the figure is inactive: 0.024; as for CNOT7 (UniProt Q9UIV1), inactive: 0.023.
In the case of COA3 (UniProt Q9Y2R0), the log2 fold change is inactive: -0.142.
As for COMMD7 (UniProt Q86VX2), the log2 fold change is inactive: 0.036.
For the target CNOT6 (UniProt Q9ULM6), the log2 fold change is inactive: 0.041.
The same measure, in the same setting: as for COQ9 (UniProt O75208), the figure is inactive: 0.015.
With CNOT3 (UniProt O75175), the log2 fold change was inactive: -0.041.
CNP (UniProt P09543): the log2 fold change is inactive: 0.016.
Regarding COG2 (UniProt Q14746), the log2 fold change is inactive: 0.001.
For COG1 (UniProt Q8WTW3), the log2 fold change was inactive: -0.041.
For the target COLGALT2 (UniProt Q8IYK4), the log2 fold change is inactive: 0.029.
COPS5 (UniProt Q92905): the log2 fold change was inactive: -0.009.
As for COMMD4 (UniProt Q9H0A8), the log2 fold change was inactive: 0.004.
Regarding CPNE8 (UniProt Q86YQ8), the log2 fold change was inactive: -0.149.
For the target CNOT2 (UniProt Q9NZN8), the log2 fold change was inactive: -0.004.
The same measure, in the same setting: as for CPED1 (UniProt A4D0V7), the figure is inactive: 0.058; as for CPNE7 (UniProt Q9UBL6), inactive: -0.093.
On to COX5B (UniProt P10606), for which the log2 fold change is inactive: -0.039.
Turning to COMMD9 (UniProt Q9P000), the log2 fold change was inactive: -0.013.
For COPS7A (UniProt Q9UBW8), the log2 fold change is inactive: -0.002.
Regarding CRABP2 (UniProt P29373), the log2 fold change is inactive: -0.172.
Still for that read-out and setting: as for CNIH4 (UniProt Q9P003), the figure is inactive: 0.11.
The same measure, in the same setting: as for CNOT9 (UniProt Q92600), the figure is inactive: -0.023; as for COL15A1 (UniProt P39059), inactive: 0.023; as for CNOT1 (UniProt A5YKK6), inactive: 0.004.
With COX19 (UniProt Q49B96), the log2 fold change was inactive: -0.03.
With CORO2A (UniProt Q92828), the log2 fold change was inactive: 0.087.
For CORO1A (UniProt P31146), the log2 fold change is inactive: 0.078.
CPEB4 (UniProt Q17RY0): the log2 fold change is inactive: -0.09.
Take CNOT8 (UniProt Q9UFF9): the log2 fold change was inactive: -0.215.
Turning to CNRIP1 (UniProt Q96F85), the log2 fold change was inactive: 0.155.

Compound in a further test: c1ccc([C@@H]2C[C@H]2NC2CCNCC2)cc1
The description is as above. In short, it runs like this: as §1
As for COPS3 (UniProt Q9UNS2), the log2 fold change was inactive: -0.035.
COPS4 (UniProt Q9BT78): the log2 fold change is inactive: 0.037.
Still for that read-out and setting: as for COLEC11 isoform 10 (UniProt Q9BWP8), the figure is inactive: -0.022; as for COPS2 isoform 2 (UniProt P61201), inactive: 0.069.
With CNOT7 (UniProt Q9UIV1), the log2 fold change was inactive: 0.028.
Same read-out and setting: as for COA3 (UniProt Q9Y2R0), the figure is inactive: -0.041; as for COMMD7 (UniProt Q86VX2), inactive: -0.064.
On to CNOT6 (UniProt Q9ULM6), for which the log2 fold change was inactive: 0.026.
In the case of COQ9 (UniProt O75208), the log2 fold change is inactive: 0.08.
Regarding CNOT3 (UniProt O75175), the log2 fold change is inactive: 0.023.
Regarding CNP (UniProt P09543), the log2 fold change was inactive: 0.021.
In the case of COG2 (UniProt Q14746), the log2 fold change was inactive: 0.009.
With COG1 (UniProt Q8WTW3), the log2 fold change is inactive: 0.008.
As to COLGALT2 (UniProt Q8IYK4), the log2 fold change was inactive: 0.03.
With COPS5 (UniProt Q92905), the log2 fold change is inactive: 0.04.
COMMD4 (UniProt Q9H0A8): the log2 fold change was inactive: 0.06.
Take CPNE8 (UniProt Q86YQ8): the log2 fold change was inactive: 0.053.
In the case of CNOT2 (UniProt Q9NZN8), the log2 fold change was inactive: 0.008.
For CPED1 (UniProt A4D0V7), the log2 fold change was inactive: 0.052.
Regarding CPNE7 (UniProt Q9UBL6), the log2 fold change was inactive: -0.008.
Take COX5B (UniProt P10606): the log2 fold change was inactive: 0.064.
Take COMMD9 (UniProt Q9P000): the log2 fold change was inactive: 0.074.
Same read-out and setting: as for COPS7A (UniProt Q9UBW8), the figure is inactive: -0.007; as for CRABP2 (UniProt P29373), inactive: -0.001; as for CNOT9 (UniProt Q92600), inactive: 0.007.
With COL15A1 (UniProt P39059), the log2 fold change was inactive: 0.004.
Take CNOT1 (UniProt A5YKK6): the log2 fold change is inactive: 0.01.
Turning to COX19 (UniProt Q49B96), the log2 fold change was inactive: 0.004.
Turning to CORO2A (UniProt Q92828), the log2 fold change is inactive: 0.028.
Turning to CORO1A (UniProt P31146), the log2 fold change was inactive: -0.019.
For CPEB4 (UniProt Q17RY0), the log2 fold change is inactive: -0.126.
The same measure, in the same setting: as for CNOT8 (UniProt Q9UFF9), the figure is inactive: -0.014.

The values are drawn from the supplement of paper PMC10849652.
